According to patent US20160279221A1:

B1: monoclonal antibody 1B10 (antibody, V domains shown)
VH: EVQLQESGPGLVQPSQSLSITCTVSGFSLNMYGVHWVRQSPGKGLEWLGVIWSGGTTDYNAAFISRLSINRDNSKSQVFFKMNSLQTDDTAIYYCVRNNGYYVDAMDYWGQGTSVAVSS
VL: DVVMTQTPLSLPVSLGDQASISCRSSQSLVHSNGNTYLHWYLQRPGQSPKLLIYKVSNRFSGVPDRFSGSGSGTDFTLKISRVEAEDLGVYFCSQSTLGPTFGGGTKLEMQR
B2: monoclonal antibody 4E8 (antibody, V domains shown)
VH: B1 VH with G26D, N30I, T56S, N70S, R71K, T87A, V96A, A116T
VL: B1 VL with S32N, R44K, S61F, L98H, G99V, M110I, Q111K
B3: monoclonal antibody 4E11 (antibody, V domains shown)
VH: EVQLQESGPGLVRPSQSLSITCTVSGFSLPLYGVHWVRQSPGKGLEWLGVIWSGGSTDYNAAFVSRLSISKDNSKSQVFFEMNSLQADDTATYYCARNNGYYVDAMDYWGQGTSVTVSS
VL: B1 VL with R44K, Y54F, K79Q, V90F, L98H, G99V, M110I, Q111K
B4: monoclonal antibody 1E10 (antibody, V domains shown)
VH: EVQLQESGAELAKPGASVKLSCKASGYTFTNYLMHWIKQRPGQGLEWIGYINHGSGYTNYNQKFIDRATLTADKSSSTAYMQLRSLTYEDSAVYYCVHGYFDVWGTGTTVTVSS
VL: QIVLTQSPTIMSASPGEKVTMTCSASSSVTYMHWYQQKPGTSPKRWIYDTSKLASGVPARFSGSGSGTSYSLTISSMEAEDAATYYCHQRSSYPTFGGGTKLEIKR

How the values were obtained:
[1] = target: chimera Lin-D1 (linear domain-1 of P. falciparum AMA1 on P. berghei AMA1 scaffold) (Plasmodium falciparum; Plasmodium berghei); test: Western blot, linear domain chimera reactivity (cell printed once for the group)
[2] = target: chimera Lin-D2 (linear domain-2 of P. falciparum AMA1 on P. berghei AMA1 scaffold) (Plasmodium berghei; Plasmodium falciparum); test: Western blot on chimeric proteins
[3] = target: chimera Lin-D3 (linear domain-3 of P. falciparum AMA1 on P. berghei AMA1 scaffold) (Plasmodium berghei; Plasmodium falciparum); test: Western blot, linear domain chimera reactivity

Binder	binding [1]	binding [2]	binding [3]
B1	binds	no binding	–
B2	binds	no binding	–
B3	binds	no binding	–
B4	–	–	binds

Substitutions are numbered along the chain they refer to. These are yes or no findings as the source states them, for the method shown. For some of these results: Binding can be weak; no strength is given.
